Library screen at single concentrations

The values are deposited in ChEMBL (CHEMBL3988442, “University of Dundee, Small-Polar-MMV Screening Library” (2021)).

T. brucei: 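Whole-parasite assay of Trypanosoma brucei over 72 hours; the read-out is not stated. Compounds at 30 µM. Direction is inferred from retests: higher values go with stronger inhibition. Values scatter widely below zero; nearly all retest evidence comes from the higher of the two concentrations used. Of about 64,000 compounds tested this way, about 940 (1.5%) reached 50% or more in at least one test.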
Toxoplasma: 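Assay of Toxoplasma gondii numbers, read through their beta-galactosidase reporter with a colour substrate. Compounds at 10 µM. Higher reads as fewer parasites (inferred from which compounds were picked for retests). About 67,000 compounds were tested under these conditions; 0.38% (about 260) showed 50% or more at least once.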

Results are given as percent effect. How 0% and 100% were set is not recorded. Most values in the screen are low, and negative values occur. Compounds were drawn at random from those tested, without regard to their results. A dash means the value is not listed here; it may have been measured.

structure | T. brucei | Toxoplasma
CS(=O)(=O)N1CCC2(CC1)NCCn1c(-c3ccccc3)cnc12.O=C(O)C(F)(F)F.O=C(O)C(F)(F)F | -105.9 | -3.937
COCCS(=O)(=O)c1ncc(CN(C)C)n1Cc1ccccc1 | -41.45 | -6.805
CC(=O)Nc1ccc2nn(C(C)C)cc2c1 | 3.379 | -3.744
CC1c2ncc(COc3cccnc3)n2CCN1C(=O)Cc1ccco1.O=C(O)C(F)(F)F (stereo unspecified) | 21.73 | -0.5977
C[C@]1(O)CN(CCO)CC[C@@H]1Oc1cccc(F)c1 | -0.9194 | 16.29
COCCCOc1ccc(C(=O)N(C)Cc2cccc(O)c2)cn1 | 26.64 | 0.4651
Cc1nc(C2CCCN(C(=O)c3csc(C)n3)C2)no1 (stereo unspecified) | -42.52 | 0.885
O=C(CCNc1ncccn1)NCc1cccc(OC(F)F)c1 | -47.11 | 6.49
Cn1ncc2c1CCCC2NCc1cccc(OC2CCCC2)c1 (stereo unspecified) | 65.11 | 10.88
O=C(Cc1ccsc1)N1CCCC2(COCCN(CC3CC3)C2)C1.O=C(O)C(F)(F)F (stereo unspecified) | -65.3 | -2.426
CCOC(C)c1nccn1Cc1noc(CC)n1 (stereo unspecified) | -5.326 | -0.2651
C[C@@H]1CN(c2ccc3c(Cl)ccnc3c2F)CC(C(N)=O)O1 (stereo partly specified) | -25.8 | 0
Cc1cnc(NCc2ccncc2)nc1-c1cnn(C)c1 | -4.688 | 11.5
COc1ccncc1NCc1cscn1 | -21.44 | 1.913
[H][C@@]12CN(c3ccccn3)C[C@]1([H])N(CCCc1ccc(F)cc1)C(=O)O2 | 2.866 | 6.928
CC(C)Cc1nnc(NCc2ccsc2)o1 | -29.25 | 6.735
COc1ncccc1NC(=O)N1CCCC(CNC(=O)OC(C)(C)C)C1 (stereo unspecified) | -8.34 | -0.9502
O=C(NCCCO)C1CC(=O)N(c2n[nH]c3cccc(F)c23)C1 (stereo unspecified) | 18.85 | -0.7173
CN(CC1COc2ccccc2O1)C(=O)C1=NN(C)C(=O)CC1 (stereo unspecified) | -29.23 | -0.148
Cc1ccc(C)c(N2CCN(CC3(O)CCNC3)CC2)c1 (stereo unspecified) | 106.8 | 2.378
FC(F)(F)CCc1ccnc(N2CCN(Cc3ccccn3)CC2)n1 | -1.801 | -2.844
Cc1cnn(CC2CCCN2c2ncnc3ccccc23)c1 (stereo unspecified) | -44.82 | -15.85
CCC[C@@H]1CN(Cc2ccccc2C#N)C[C@H]1NC(C)=O | -17.46 | 1.936
N#Cc1ccc(N2CCC3(CCCN(c4ccccn4)C3)C2)nc1.O=C(O)C(F)(F)F (stereo unspecified) | 12.09 | 16.66
Cc1cc(F)ccc1-c1ccccc1CC1CNCCNC1=O.Cl (stereo unspecified) | 4.203 | 34.03
CC(=O)N[C@H]1CCO[C@@H](c2cccc(NC(=O)C(C)(C)C)c2)C1 | -15.12 | 13.93
Cc1cccc(Nc2cccc(C3CCCN(Cc4ncc[nH]4)C3)n2)n1 (stereo unspecified) | -15.42 | 1.647
CCc1noc(CNc2ccc(C(=O)N3CCCC(C)C3)cc2C)n1 (stereo unspecified) | 21.64 | -1.588
Cc1cc(C(=O)N2CCCC2c2nc(C)cc(O)n2)on1 (stereo unspecified) | 7.275 | 8.026
CC[C@@H](c1ccccc1)n1c(C2CC2)n[nH]c1=O | -20.96 | 4.405
Cc1nccc(-c2cccc(-c3ccn(CC4CCNC4)n3)c2)n1 (stereo unspecified) | -12.14 | -57.92
CC(C)c1nc(CN(C)C(=O)CCc2ccc3c(c2)OCO3)cs1 | 12.36 | -37.7
Cc1ccc(C(C)NCCc2nccn2Cc2ccccc2)o1 (stereo unspecified) | -16.08 | 0.911
c1ccc(-c2nc(SCc3nnc(C4CC4)o3)n[nH]2)nc1 | -13.25 | -0.268
Cc1ccc2nc(C3CCCN(Cc4ccccc4)C3)nc(O)c2c1 (stereo unspecified) | - | -0.08529
Cc1csc2c(N3CCC(Cn4cc(C(C)(C)O)nn4)CC3)ncnc12 | -4.235 | -8.038
[H][C@@]12C[C@H](C(=O)Nc3ccccc3)[C@@]([H])(CN(S(=O)(=O)c3ccccc3)C1)O2 | -10.09 | -1.63
Cc1nc(C2CCCNC2)cc(N2CCc3nc(N)sc3C2)n1 (stereo unspecified) | -46.12 | -41.82
CS(=O)(=O)NCc1nnc2n1CCN(Cc1nccs1)C2 | -83.68 | 9.065
O=C(O)C(F)(F)F.O=C(O)C(F)(F)F.[H][C@@]12COC[C@H](C(=O)NCc3ccccn3)[C@]1([H])CN(C1CCCC1)C2 | -412.9 | -12.71

Repeated from the top, 5 entries:

structure,T. brucei,Toxoplasma
CS(=O)(=O)N1CCC2(CC1)NCCn1c(-c3ccccc3)cnc12.O=C(O)C(F)(F)F.O=C(O)C(F)(F)F,-105.9,-3.937
COCCS(=O)(=O)c1ncc(CN(C)C)n1Cc1ccccc1,-41.45,-6.805
CC(=O)Nc1ccc2nn(C(C)C)cc2c1,3.379,-3.744
CC1c2ncc(COc3cccnc3)n2CCN1C(=O)Cc1ccco1.O=C(O)C(F)(F)F (stereo unspecified),21.73,-0.5977
C[C@]1(O)CN(CCO)CC[C@@H]1Oc1cccc(F)c1,-0.9194,16.29